Reference: patent US8258311B2, “Human protein tyrosine phosphatase inhibitors and methods of use” (Aerpio Therapeutics Inc., priority 2006, dated 2012)

Tested on: hindlimb ischemia
Assay: Rat hindlimb model of collateral development: blood flow during treadmill exercise (microspheres)
Assay type: in vivo
Conditions: mean ± SE
From the text: The Rat hindlimb model is used to evaluate angiogenic properties of novel HPTPb inhibitors. Specifically to determine if there is enhanced blood flow to the collateral dependent region of the leg post ischemia when the animal is in an exercise challenged state. […] An initial surgery is done to create hindlimb ischemia and implant osmotic pumps essentially as previously described with minor alterations. […] Following induction, animals are transferred to a surgical mat and anesthesia is continued via a non-rebreathing circuit. A warming lamp is positioned above the rat and a rectal probe is placed to monitor the animal's body temperature. The groin areas bilaterally are clipped and prepared with alternating Betadine and alcohol scrubs (3×) and a sterile drape is placed over the rat. The left femoral artery is exposed through a skin incision and subsequently ligated in two positions 1 cm apart; distal to the inguinal ligament and proximal to the femoral circumflex artery. The skin is closed using either skin staples or Vetbond. The same procedure is repeated on the right side. […] Prior to implantation, osmotic pumps are filled with VEGF165 solution at a dose of 15 μg/kg/day, and primed overnight inside sterile saline beakers in a water bath (37° C.). […] Following euthanasia, tissues are removed, trimmed, weighed, recorded, and placed in marked tubes for processing. […]

Q: Which “Blood Flow During exercise Kidney” value (continuous SubQ infusion High 15 mg/kg/d) does the source give for CCc1csc([C@H](Cc2ccc(NS(=O)(=O)O)cc2)NC(=O)[C@H](Cc2ccccc2)NC(=O)OC(C)(C)C)n1 [4-{(S)-2-[(S)-2-(tert-Butoxycarbonylamino)-3-phenylpropanamido]-2-(4-ethylthiazol-2-yl)ethyl}phenylsulfamic acid] here?
A: Its value is 319 ± 37.9 ml/min/100 g.

Q: What about the “Blood Flow During exercise Kidney” value (continuous SubQ infusion Low 5 mg/kg/d) of the same compound?
A: The value was 318 ± 30.1 ml/min/100 g.
